No constants are given. Whether binding was seen depends on the method and setting. Binding can be weak; no strength is given.
Biological target: HCV non-structural 5A (NS5A) protein, bait of the SH3 phage-display screen (hepatitis C virus (genotype not stated for this experiment))
Assay: phage display screen; phage-display library expressing the entire complement of human SH3 domains screened for NS5A interacting partners; no further details given

B1: SH3 domain of mixed lineage kinase 3 (MLK3), displayed on phage (domain or fragment, UniProt Q16584 41-105)
chain: YANPVWTALFDYEPSGQDELALRKGDRVEVLSRDAAISGDEGWWAGQVGGQVGIFPSNYVSRGGG
binding: binds

From article PMC3750171
